Taken from: PubChem BioAssay AID504786 (Drosophila RNAi Screening Center, 2011)

- Purpose: 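Fly genes required for HIF-dependent transcription when hypoxia is mimicked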 (primary screen)
- Cells: Drosophila S2 cells with a stable HIF luciferase reporter
- Knock-down reagent: long dsRNA against Drosophila genes, about 0.2 µg dsRNA per well of a 384-well plate
- Duration: three days of knock-down, then 20 h of DFO before reading
- Conditions: desferrioxamine (DFO) at 100 µM, an iron chelator that mimics hypoxia, for 20 h
- Measurement: 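HIF reporter luminescence in cells given 100 µM DFO for 20 h, using the mouse ldh-a hypoxia-response element, scored as per-plate z-scores; higher means greater loss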
- Direction: z-score: higher = stronger loss of HIF reporter signal
In all, the deposit lists about 21,000 reagents; this is an unselected part of those with a known target gene and a result. 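Primary screen; positive scores mean lost reporter signal, so the sign may be inverted from the usual convention.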 Reagent sequences are not shown.

What is on record for Nup160 [DRSC02774]?
z-score, replicate 1: 1.8; z-score, replicate 2: 2.1

Which result is listed for Syt14 [DRSC12331]?
z-score, replicate 1: -0.3; z-score, replicate 2: -0.3

For O-fut1 [DRSC06138], what was measured?
z-score, replicate 1: -0.2; z-score, replicate 2: -0.5

For Kdm4B [DRSC06862], how do the results read?
z-score, replicate 1: -0.1; z-score, replicate 2: -0.1

What did the screen give for CG5399 [DRSC15791]?
z-score, replicate 1: -0.2; z-score, replicate 2: -0.2

For eEF2 [DRSC03737], how do the results read?
z-score, replicate 1: 6.5; z-score, replicate 2: 5.2

With Osi15 [DRSC12178], how do the results read?
z-score, replicate 1: -0.1; z-score, replicate 2: 0.5

With CG12384 [DRSC06145], what does the deposit list?
z-score, replicate 1: -0.2; z-score, replicate 2: -0.5

How did the screen score ATP8A [DRSC05421]?
z-score, replicate 1: -0.2; z-score, replicate 2: -0.2

What did the screen give for ATP8A [DRSC06643]?
z-score, replicate 1: 0.2; z-score, replicate 2: 0.3

What is on record for ATP8A [DRSC06644]?
z-score, replicate 1: -0.2; z-score, replicate 2: -0.6

What did the screen give for Cyp4c3 [DRSC16631]?
z-score, replicate 1: -0.3; z-score, replicate 2: -0.4

With Cad96Cb [DRSC14243], how do the results read?
z-score, replicate 1: 0.3; z-score, replicate 2: -0.4

How did the screen score Cad96Cb [DRSC14665]?
z-score, replicate 1: -0.4; z-score, replicate 2: -0.2

What did the screen give for Itpr [DRSC12354]?
z-score, replicate 1: -0.4; z-score, replicate 2: -0.3

For LIMK1 [DRSC19811], what does the deposit list?
z-score, replicate 1: -0.2; z-score, replicate 2: -0.4

What did the screen give for stc [DRSC03620]?
z-score, replicate 1: -0.2; z-score, replicate 2: 0

With CG6700 [DRSC02980], what does the deposit list?
z-score, replicate 1: 0.5; z-score, replicate 2: 0.4

What is on record for CG18585 [DRSC02678]?
z-score, replicate 1: -0.3; z-score, replicate 2: -0.4

For Oda [DRSC07626], what was measured?
z-score, replicate 1: -0.2; z-score, replicate 2: -0.6

What is on record for Ada3 [DRSC20321]?
z-score, replicate 1: 0.1; z-score, replicate 2: -0.8

For Ada3 [DRSC20322], how do the results read?
z-score, replicate 1: -0.3; z-score, replicate 2: -0.5

For l(1)G0320 [DRSC18255], what does the deposit list?
z-score, replicate 1: -0.2; z-score, replicate 2: -0.2

For wap [DRSC20626], how do the results read?
z-score, replicate 1: 0.2; z-score, replicate 2: 0.8

How did the screen score CG5882 [DRSC15907]?
z-score, replicate 1: -0.2; z-score, replicate 2: -0.5

How did the screen score rols [DRSC09873]?
z-score, replicate 1: 0.3; z-score, replicate 2: 0.1

For rols [DRSC10254], what was measured?
z-score, replicate 1: -0.3; z-score, replicate 2: -0.1

For rols [DRSC10536], what does the deposit list?
z-score, replicate 1: -0.2; z-score, replicate 2: 0

What is on record for tor [DRSC07707]?
z-score, replicate 1: -0.2; z-score, replicate 2: -1

With Jarid2 [DRSC10372], how do the results read?
z-score, replicate 1: -0.3; z-score, replicate 2: -0.6

With CG10341 [DRSC02040], what does the deposit list?
z-score, replicate 1: -0.4; z-score, replicate 2: -0.3

For Appl [DRSC17728], what was measured?
z-score, replicate 1: -0.2; z-score, replicate 2: -0.1

For yem [DRSC14865], how do the results read?
z-score, replicate 1: -0.5; z-score, replicate 2: -0.6

For yem [DRSC17097], how do the results read?
z-score, replicate 1: -0.7; z-score, replicate 2: -0.1

For CG14455 [DRSC11712], what was measured?
z-score, replicate 1: -0.3; z-score, replicate 2: 0.4

What is on record for Mcm7 [DRSC11219]?
z-score, replicate 1: 0.1; z-score, replicate 2: 0.3

With sqh [DRSC18837], what does the deposit list?
z-score, replicate 1: -0.4; z-score, replicate 2: -0.2

With mts [DRSC03574], how do the results read?
z-score, replicate 1: 0.4; z-score, replicate 2: 2.1

What is on record for dsd [DRSC13829]?
z-score, replicate 1: 0; z-score, replicate 2: 0

What did the screen give for dsd [DRSC15850]?
z-score, replicate 1: -0.3; z-score, replicate 2: -0.5

4 of these entries, set out differently:
{"gene":"yem","dsRNA":"DRSC14865","z-score, replicate 1":-0.5,"z-score, replicate 2":-0.6}
{"gene":"yem","dsRNA":"DRSC17097","z-score, replicate 1":-0.7,"z-score, replicate 2":-0.1}
{"gene":"CG14455","dsRNA":"DRSC11712","z-score, replicate 1":-0.3,"z-score, replicate 2":0.4}
{"gene":"Mcm7","dsRNA":"DRSC11219","z-score, replicate 1":0.1,"z-score, replicate 2":0.3}
